Assay results published in publication PMC7073074.
Results are given in words; binding and its absence hold for the method and conditions named. Binding seen in cells or lysates may run through a third protein. A yes stands for co-enrichment or nearness to the bait. Other partners may have been found. Tags and fused reporters may be left off the sequences shown.

By UniProt entry, the sequences of proteins in these tests, tags left out.
UniProt Q54K81: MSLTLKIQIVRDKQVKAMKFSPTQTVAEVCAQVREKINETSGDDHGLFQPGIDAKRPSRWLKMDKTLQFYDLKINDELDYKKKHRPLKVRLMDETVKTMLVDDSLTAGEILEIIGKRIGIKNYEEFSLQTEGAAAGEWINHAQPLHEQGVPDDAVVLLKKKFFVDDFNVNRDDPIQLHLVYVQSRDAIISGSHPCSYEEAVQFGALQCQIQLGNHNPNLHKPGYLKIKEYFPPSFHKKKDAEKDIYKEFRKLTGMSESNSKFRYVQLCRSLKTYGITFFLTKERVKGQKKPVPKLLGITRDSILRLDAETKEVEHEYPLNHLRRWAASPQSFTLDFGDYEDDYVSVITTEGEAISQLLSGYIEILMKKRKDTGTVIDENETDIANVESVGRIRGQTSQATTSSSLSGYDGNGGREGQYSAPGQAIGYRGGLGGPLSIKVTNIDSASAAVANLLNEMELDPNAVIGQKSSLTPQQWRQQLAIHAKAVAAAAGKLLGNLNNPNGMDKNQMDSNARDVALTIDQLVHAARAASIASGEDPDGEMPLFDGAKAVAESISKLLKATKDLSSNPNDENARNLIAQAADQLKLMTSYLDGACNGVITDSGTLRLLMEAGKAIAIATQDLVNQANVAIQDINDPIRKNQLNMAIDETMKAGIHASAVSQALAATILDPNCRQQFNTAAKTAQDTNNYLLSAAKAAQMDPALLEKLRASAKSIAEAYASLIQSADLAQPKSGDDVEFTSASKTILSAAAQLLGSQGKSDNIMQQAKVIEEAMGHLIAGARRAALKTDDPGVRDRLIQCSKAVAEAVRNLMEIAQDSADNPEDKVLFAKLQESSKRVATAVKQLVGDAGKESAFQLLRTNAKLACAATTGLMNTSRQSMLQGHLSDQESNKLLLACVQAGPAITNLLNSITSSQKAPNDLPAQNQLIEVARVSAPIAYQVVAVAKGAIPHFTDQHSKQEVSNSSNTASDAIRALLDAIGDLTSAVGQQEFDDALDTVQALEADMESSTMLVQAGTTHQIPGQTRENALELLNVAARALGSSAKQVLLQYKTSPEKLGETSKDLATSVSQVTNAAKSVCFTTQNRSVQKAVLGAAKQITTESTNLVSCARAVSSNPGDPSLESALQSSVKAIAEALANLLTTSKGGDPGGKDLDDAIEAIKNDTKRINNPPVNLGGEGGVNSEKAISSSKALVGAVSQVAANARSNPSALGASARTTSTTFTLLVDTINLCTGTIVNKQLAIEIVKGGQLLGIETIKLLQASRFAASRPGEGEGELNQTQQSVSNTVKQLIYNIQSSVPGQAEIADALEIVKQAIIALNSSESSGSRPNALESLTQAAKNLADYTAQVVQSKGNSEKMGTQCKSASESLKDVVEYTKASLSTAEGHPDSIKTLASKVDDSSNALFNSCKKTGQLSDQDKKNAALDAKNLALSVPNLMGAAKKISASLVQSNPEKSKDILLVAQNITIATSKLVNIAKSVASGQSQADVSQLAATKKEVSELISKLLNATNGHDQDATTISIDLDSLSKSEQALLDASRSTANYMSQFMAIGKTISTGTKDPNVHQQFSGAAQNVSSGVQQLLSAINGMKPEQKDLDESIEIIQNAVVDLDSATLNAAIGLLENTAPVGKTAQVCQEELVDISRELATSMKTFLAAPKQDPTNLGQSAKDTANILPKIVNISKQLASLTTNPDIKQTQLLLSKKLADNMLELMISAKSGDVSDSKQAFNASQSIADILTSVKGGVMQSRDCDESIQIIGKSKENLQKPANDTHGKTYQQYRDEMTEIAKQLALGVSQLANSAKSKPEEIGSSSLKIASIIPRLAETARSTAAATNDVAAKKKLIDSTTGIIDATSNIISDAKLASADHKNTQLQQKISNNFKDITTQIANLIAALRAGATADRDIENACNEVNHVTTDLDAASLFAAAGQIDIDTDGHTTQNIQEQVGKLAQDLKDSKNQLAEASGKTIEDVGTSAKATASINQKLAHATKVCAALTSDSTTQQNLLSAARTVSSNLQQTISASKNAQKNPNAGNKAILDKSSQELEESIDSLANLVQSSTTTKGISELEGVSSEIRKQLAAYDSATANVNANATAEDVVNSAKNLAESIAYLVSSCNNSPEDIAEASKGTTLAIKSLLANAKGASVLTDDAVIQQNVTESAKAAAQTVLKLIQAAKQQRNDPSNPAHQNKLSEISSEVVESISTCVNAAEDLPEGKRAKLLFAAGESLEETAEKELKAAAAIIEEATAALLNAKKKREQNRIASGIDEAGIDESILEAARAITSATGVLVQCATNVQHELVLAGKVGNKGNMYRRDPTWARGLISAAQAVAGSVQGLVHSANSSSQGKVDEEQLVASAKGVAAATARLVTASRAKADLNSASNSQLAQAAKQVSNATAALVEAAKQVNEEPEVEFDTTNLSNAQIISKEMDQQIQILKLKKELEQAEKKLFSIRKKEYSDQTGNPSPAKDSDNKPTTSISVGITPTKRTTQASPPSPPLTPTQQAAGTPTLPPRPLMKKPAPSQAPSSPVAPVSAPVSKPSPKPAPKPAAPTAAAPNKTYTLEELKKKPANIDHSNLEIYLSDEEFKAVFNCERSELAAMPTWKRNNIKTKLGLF

Experiments:
[1] = target: T1, FLAG-tagged coronin A (Dictyostelium discoideum) (UniProt P27133); assay: affinity purification with mass spectrometry; anti-FLAG M2 on lysates of cells with FLAG-CorA or FLAG-CorAΔCC against untagged CorA; low salt TBS, 1% Triton X-100; cells harvested at 110 h
T1 sequence: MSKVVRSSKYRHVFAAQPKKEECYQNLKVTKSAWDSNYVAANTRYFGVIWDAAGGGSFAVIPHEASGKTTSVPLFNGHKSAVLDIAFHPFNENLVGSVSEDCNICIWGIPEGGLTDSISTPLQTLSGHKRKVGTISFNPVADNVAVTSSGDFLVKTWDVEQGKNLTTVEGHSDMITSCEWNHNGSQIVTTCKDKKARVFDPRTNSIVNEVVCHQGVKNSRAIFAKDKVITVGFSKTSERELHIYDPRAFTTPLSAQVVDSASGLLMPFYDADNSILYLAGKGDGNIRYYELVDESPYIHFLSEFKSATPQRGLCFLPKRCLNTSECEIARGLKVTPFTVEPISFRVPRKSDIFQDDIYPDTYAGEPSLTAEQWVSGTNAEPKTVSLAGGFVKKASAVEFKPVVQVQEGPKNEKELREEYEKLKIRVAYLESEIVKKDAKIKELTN

[2] = target: T1, FLAG-tagged coronin A (Dictyostelium discoideum); assay: affinity purification with mass spectrometry; anti-FLAG M2 on lysates of corA- cells with FLAG-CorA against cells with untagged CorA; low salt TBS (25 mM NaCl), 1% Triton X-100, 4 °C; samples of all time points pooled; cutoff log2ratio > 1.5, q-value < 0.05
[3] = target: T1, FLAG-tagged coronin A (Dictyostelium discoideum); assay: affinity purification with mass spectrometry; anti-FLAG M2 on lysates of cells with FLAG-CorA or FLAG-CorAΔCC against untagged CorA; low salt TBS, 1% Triton X-100; cells harvested at 48 h

binding [1]	binding [2]	binding [3]	Substance
binds	binds	–	actobindin-B/C (Dictyostelium discoideum (endogenous))
–	binds	binds	talin-B (from UniProt Q54K81 1-2614)
